Source: patent publication US20110217279A1
No constants are given. Whether binding was seen depends on the method and setting. For some of these results: In cells and extracts the contact can be indirect. Some entries that bind do so weakly or less than the wild type. Where a sequence is shown, tags or fusion partners need not be part of it.

The chains behind the UniProt entries cited, without tags or fusion partners. Where a name states a change or a piece, a line headed by the entry shows the natural chain unless it says otherwise.
UniProt Q05655: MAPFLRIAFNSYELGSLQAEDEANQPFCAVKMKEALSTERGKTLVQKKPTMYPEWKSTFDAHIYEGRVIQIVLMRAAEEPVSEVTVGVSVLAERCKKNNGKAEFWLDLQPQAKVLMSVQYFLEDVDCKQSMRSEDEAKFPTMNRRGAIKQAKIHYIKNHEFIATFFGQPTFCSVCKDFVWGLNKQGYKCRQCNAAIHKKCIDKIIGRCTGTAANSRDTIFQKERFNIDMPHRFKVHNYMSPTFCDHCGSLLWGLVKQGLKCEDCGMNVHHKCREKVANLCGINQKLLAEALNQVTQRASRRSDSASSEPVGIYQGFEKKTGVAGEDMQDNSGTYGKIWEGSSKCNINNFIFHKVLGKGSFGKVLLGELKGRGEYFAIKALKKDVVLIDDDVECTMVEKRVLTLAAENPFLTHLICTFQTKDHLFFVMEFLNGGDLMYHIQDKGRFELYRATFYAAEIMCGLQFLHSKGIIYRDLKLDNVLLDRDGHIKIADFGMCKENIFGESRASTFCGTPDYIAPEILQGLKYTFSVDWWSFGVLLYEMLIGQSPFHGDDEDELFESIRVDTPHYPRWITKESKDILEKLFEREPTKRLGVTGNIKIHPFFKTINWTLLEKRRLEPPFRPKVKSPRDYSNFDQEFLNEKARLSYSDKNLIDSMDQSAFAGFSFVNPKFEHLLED

Columns and labels:
[1] = biological target: human PKC-δ (protein kinase C delta), wild type, expressed in HEK293A cells (human) (UniProt Q05655); experiment: GST pull-down from lysate of 293A cells overexpressing PKC-δ, blot with anti-PKC-δ
[2] = biological target: human PKC-δ (protein kinase C delta), wild type, expressed in HEK293A cells (human) (UniProt Q05655); experiment: GST pull-down from lysate of cells overexpressing PKC-δ, blot with anti-PKC-δ
[3] = biological target: human PKC-δ (protein kinase C delta), wild type, expressed in HEK293A cells (human) (UniProt Q05655); experiment: anti-HA co-immunoprecipitation from HEK-293A cells expressing PKC-δ and HA-hBVR, PMA treated
[4] = biological target: human PKC-δ (protein kinase C delta), wild type, expressed in HEK293A cells (human) (UniProt Q05655); experiment: anti-HA co-immunoprecipitation from cells expressing PKC-δ and HA-hBVR, PMA or IGF-1 treated, blot with anti-PKC-δ
[5] = biological target: human PKC-δ (protein kinase C delta), wild type, expressed in HEK293A cells (human) (UniProt Q05655); experiment: anti-HA co-immunoprecipitation, western blot (FIG. 8A; also FIG. 8E with sc-RNA)
[6] = biological target: human PKC-δ (protein kinase C delta), wild type, expressed in HEK293A cells (human) (UniProt Q05655); experiment: anti-HA co-immunoprecipitation from cells loaded with myristoylated peptides, blot with anti-PKC-δ (FIG. 9B)
[7] = biological target: human PKC-δ (protein kinase C delta), wild type, expressed in HEK293A cells (human) (UniProt Q05655); experiment: anti-HA co-immunoprecipitation from cells co-expressing HA-hBVR and PKC-δ, western blot
[8] = biological target: human PKC-δ (protein kinase C delta), wild type, expressed in HEK293A cells (human) (UniProt Q05655); experiment: anti-HA co-immunoprecipitation, western blot (FIG. 2B)
[9] = biological target: human PKC-δ (protein kinase C delta), wild type, expressed in HEK293A cells (human) (UniProt Q05655); experiment: anti-PKC-δ immunoprecipitation of endogenous proteins, blot with anti-hBVR (FIG. 8C)
[10] = biological target: human PKC-δ (protein kinase C delta), wild type, expressed in HEK293A cells (human) (UniProt Q05655); experiment: anti-PKC-δ immunoprecipitation of endogenous proteins, western blot

Measured: binding

B1: GST-hBVR fusion protein (enzyme, not shown: a dimerising Fc or GST)
chain: MNAEPERKFGVVVVGVGRAGSVRMRDLRNPHPSSAFLNLIGFVSRRELGSIDGVQQISLEDALSSQEVEVAYICSESSSHEDYIRQFLNAGKHVLVEYPMTLSLAAAQELWELAEQKGKVLHEEHVELLMEEFAFLKKEVVGKDLLKGSLLFTSDPLEEDRFGFPAFSGISRLTWLVSLFGELSLVSATLEERKEDQYMKMTVCLETEKKSPLSWIEEKGPGLKRNRYLSFHFKSGSLENVPNVGVNKNIFLKDQNIFVQKLLGQFSEKELAAEKKRILHCLGLAEEIQKYCCSRK
binds: [1] | [2]

B2: HA-tagged hBVR (enzyme, not shown: small tags and cut ends)
chain: MNAEPERKFGVVVVGVGRAGSVRMRDLRNPHPSSAFLNLIGFVSRRELGSIDGVQQISLEDALSSQEVEVAYICSESSSHEDYIRQFLNAGKHVLVEYPMTLSLAAAQELWELAEQKGKVLHEEHVELLMEEFAFLKKEVVGKDLLKGSLLFTSDPLEEDRFGFPAFSGISRLTWLVSLFGELSLVSATLEERKEDQYMKMTVCLETEKKSPLSWIEEKGPGLKRNRYLSFHFKSGSLENVPNVGVNKNIFLKDQNIFVQKLLGQFSEKELAAEKKRILHCLGLAEEIQKYCCSRK
binds: [3] | [4] | [5] | [6] | [7] | [8]

B3: human biliverdin reductase (hBVR), untagged wild type (enzyme)
chain: AEPERKFGVVVVGVGRAGSVRMRDLRNPHPSSAFLNLIGFVSRRELGSIDGVQQISLEDALSSQEVEVAYICSESSSHEDYIRQFLNAGKHVLVEYPMTLSLAAAQELWELAEQKGKVLHEEHVELLMEEFAFLKKEVVGKDLLKGSLLFTSDPLEEDRFGFPAFSGISRLTWLVSLFGELSLVSATLEERKEDQYMKMTVCLETEKKSPLSWIEEKGPGLKRNRYLSFHFKSGSLENVPNVGVNKNIFLKDQNIFVQKLLGQFSEKELAAEKKRILHCLGLAEEIQKYCCSRK
binds: [9] | [10]
